PubChem BioAssay AID2551 (National Center for Advancing Translational Sciences (NCATS), 2010)
In all, about 310,000 compounds went through this assay and about 17,000 (5.5%) were called active. Inconclusive means that the source gave no clear call. Such entries were picked first, then a sample of the others. Calls come from the whole dose curve; as a rule, active = well fitted inhibition curve with a large enough effect; inconclusive = small, poorly fitted or top-dose-only effect, or effect the other way; inactive = no such curve, though single readings can be large or run the other way. Where the call is inconclusive, the potency comes from a doubtful curve fit.

Chains of the proteins cited; added tags and fusions are not shown. Lines headed by an entry give the natural chain unless they say otherwise; changes in a name come on top.
UniProt P51450: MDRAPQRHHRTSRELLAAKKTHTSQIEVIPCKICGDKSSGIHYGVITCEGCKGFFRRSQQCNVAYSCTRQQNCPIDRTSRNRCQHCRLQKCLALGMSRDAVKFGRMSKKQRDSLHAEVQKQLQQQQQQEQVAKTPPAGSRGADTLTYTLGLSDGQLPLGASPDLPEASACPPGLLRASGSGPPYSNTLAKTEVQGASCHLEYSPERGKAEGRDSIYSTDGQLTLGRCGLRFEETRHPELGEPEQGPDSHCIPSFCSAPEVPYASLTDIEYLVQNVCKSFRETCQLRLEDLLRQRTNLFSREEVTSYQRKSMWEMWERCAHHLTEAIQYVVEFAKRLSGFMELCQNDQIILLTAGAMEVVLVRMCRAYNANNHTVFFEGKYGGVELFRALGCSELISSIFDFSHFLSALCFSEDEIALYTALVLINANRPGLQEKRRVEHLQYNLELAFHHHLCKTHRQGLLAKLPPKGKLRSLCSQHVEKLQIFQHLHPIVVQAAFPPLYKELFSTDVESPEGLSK

target: Nuclear receptor ROR-gamma (Mus musculus) (UniProt P51450); assay: qHTS for inhibitors of ROR gamma transcriptional activity; conditions: Drosophila S2 Gal4-RORgamma UAS-luciferase reporter, 20 h; activity change, negative = inhibition: at 53.6 µM (top of the series); note: nearly all actives have a fitted effect of over 60% in size
Summary of the method: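 Drosophila Schneider cells stably carrying a metallothionein-driven Gal4 DBD–ROR gamma fusion and a UAS-Photinus luciferase reporter were exposed to compound for 1 hr, then induced with copper sulfate (700 uM final) for 20 hr at ambient temperature before luminescence reading.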
% is set by controls: 0 for no effect and ±100 for the full control effect; potency is the fitted concentration of half-maximal effect.

Row | Compound | Potency | activity change, negative = inhibition
1 | O=C(N/N=C/c1cccs1)c1n[nH]c2c1CCCC2 | active: 5.01 µM | 
2 | O=C(NCCCC1CCCC1)C1CCC(=O)N(Cc2cccc(C(F)(F)F)c2)C1 (stereo not given) | inconclusive: 35.5 µM [activator, single point] | 
3 | CN(C(=O)CN1C(=O)S/C(=C\c2ccc(Cl)cc2)C1=O)C1CCS(=O)(=O)C1 (stereo not given) | inconclusive: 35.5 µM [activator, single point] | 
4 | CC1=NN(C(=O)CCc2ccccc2)C(O)(c2ccncc2)C1 (stereo not given) | active: 1.78 µM | 
5 | Cc1cccc(N2CCN(C(=O)c3ccc4nc(-c5ccco5)c(-c5ccco5)nc4c3)CC2C)c1 (stereo not given) | inconclusive: 20 µM [activator, partial curve] | 
6 | CCCNC(=O)c1onc(CSc2cccc(OC)c2)c1C(=O)NCCC | inactive | 
7 | O=C(Nc1ccc(Cl)cc1)Nc1cccnc1 | inconclusive: 11.2 µM [activator, partial curve, poor fit] | 
8 | CC(C)(C)OC(=O)N1CCOCCOCCN(C(=O)OC(C)(C)C)CCOCCOCC1 | inconclusive: 0.316 µM [activator, partial curve] | 
9 | CCCCC[C@H](O)/C=C/[C@H]1[C@H](O)CC(=O)[C@@H]1C/C=C\CCCC(=O)O | inactive | 
10 | CC(=O)c1cccc(NC(=S)N2CCc3ccccc32)c1 | inconclusive: 22.4 µM [inhibitor, single point] | 
11 | c1ccc(CCNc2nc(-c3ccccn3)nc3ccccc23)cc1 | active: 0.251 µM | 
12 | Nc1cc(Cl)nc(N/N=C/c2c(O)ccc3ccccc23)n1 | active: 0.631 µM | 
13 | COc1ccc(C2OC(=O)CC2C(=O)NCc2ccc(C)cc2)cc1OC (stereo not given) | inactive | 
14 | CC(C)(C)c1ccc(S(=O)(=O)N2CCC(c3nc4ccc(Cl)cc4[nH]3)CC2)cc1 | inconclusive: 31.6 µM [activator, single point] | 
15 | CCCC(=O)NC(=S)Nc1ccccc1N1CCOCC1 | active: 11.2 µM | 
16 | O=S(=O)(Nc1nc2ccccc2nc1N1CCN(c2ccccc2F)CC1)c1ccc(Cl)cc1 | inactive | 
17 | CCCn1c(/N=C/c2c[nH]c3ccccc23)nc2ccccc21 | inactive | 
18 | O=C(NCC1CCN(C(=O)c2ccc([N+](=O)[O-])cc2)CC1)C(=O)Nc1ccccc1 | inactive | 
19 | O=C(N/N=C/c1cn(-c2ccccc2)nc1-c1cc2ccccc2o1)c1ccccc1Br | inconclusive: 12.6 µM [inhibitor, single point] | 
20 | CN(C)C(=O)C(OC(=O)c1ccc2c(c1)CCCC2)c1ccccc1 (stereo not given) | inactive | 
21 | COC(=O)c1c(NC(=O)CN2CCOCC2)sc2c1CCC(C)C2 (stereo not given) | inconclusive: 15.8 µM [activator, partial curve] | 
22 | Cc1cccc(CNc2ncnc3ccc(-c4ccc5c(c4)OCO5)cc23)c1 | inconclusive: 15.8 µM [activator, single point] | 
23 | CCCOP(=O)(OCCC)c1c([N+](=O)[O-])cc(C(F)(F)F)cc1[N+](=O)[O-] | inactive | 
24 | Fc1ccc2[nH]c3c(N4CCN(Cc5ccc6c(c5)OCO6)CC4)ncnc3c2c1 | inconclusive: 31.6 µM [inhibitor, single point] | 

Row | Compound | Potency | activity change, negative = inhibition
25 | CC1Cc2nc(SCC(=O)Nc3nc4ccccc4s3)n(C)c(=O)c2S1 (stereo not given) | inconclusive: 4.47 µM [activator, partial curve] | 
26 | Nc1c2c(nc3ccc(Br)cc13)N(Cc1ccccc1)CC2 | inconclusive: 11.2 µM [activator, partial curve] | 
27 | N#C/C(=C\c1ccc(-c2nc3ccccc3s2)o1)C(N)=O | inconclusive: 6.31 µM [activator, single point] | 
28 | COc1cc(NC(=O)C2=C(N3CCOCC3)/C(=C\c3ccc(N(C)C)cc3)CCC2)cc(OC)c1OC | inconclusive: 11.2 µM [activator, partial curve] | 
29 | Cc1ccc(C(=O)NCCSC2CCCCC2)cc1S(=O)(=O)Nc1ccccc1 | inconclusive: 31.6 µM [activator, single point] | 
30 | COc1cccc(OC)c1C(=O)Oc1ccc2c(c1)O/C(=C\c1ccncc1)C2=O | inconclusive: 35.5 µM [inhibitor, single point] | 
31 | Cc1c(Br)c(-c2n[nH]c(=S)n2Cc2ccco2)nn1C | active: 22.4 µM | 
32 | CCOC(=O)NC(=O)C(=CNNc1ncc(C(F)(F)F)cc1Cl)C(=O)NC(=O)OCC | inconclusive: 20 µM [inhibitor, single point] | 
33 | O=C(NCCc1c[nH]c2ccccc12)c1ccc(F)cc1F | inconclusive: 7.08 µM [inhibitor, partial curve] | 
34 | COc1ccc(Nc2c3c(nc4ccc(C)cc24)CCC3)cc1 | inactive | 
35 | O=C(Nc1nnc(-c2ccc(Cl)cc2)o1)c1cccc(N2C(=O)CCC2=O)c1 | active: 3.16 µM | 
36 | O=C(COC(=O)C1CCN(S(=O)(=O)c2ccccc2C(F)(F)F)CC1)NCc1ccc(F)cc1 | inconclusive: 22.4 µM [activator, single point] | 
37 | COc1cc(C2NC(C(=O)O)Cc3c2[nH]c2ccccc32)cc(OC)c1OC (stereo not given) | inconclusive: 35.5 µM [inhibitor, single point] | 
38 | CCOC(=O)N1CCN(c2ccc(C(C)=O)cc2F)CC1 | inconclusive: 5.62 µM [activator, single point] | 
39 | COc1cc(C2C(Oc3ccccc3C)C(=O)N2Cc2ccc(F)cc2)cc(OC)c1OC (stereo not given) | inconclusive: 35.5 µM [activator, single point] | 
40 | c1cn(-c2ncnc3ccc(-c4ccoc4)cc23)cn1 | active: 4.47 µM | 
41 | Cc1cc(OCC(=O)NC(C)C)cc(C)c1Cl | inconclusive: 0.0631 µM [activator, full curve, poor fit] | 
42 | CC(NC(=O)CSc1nc2c(c(C(F)(F)F)n1)CCc1ccccc1-2)c1ccccc1 (stereo not given) | inconclusive: 35.5 µM [activator, single point] | 
43 | COc1ccc2c3c1OC1C[C@@H](O)C=C[C@@]31CCN(C)C2 (stereo not given in full) | inactive | 
44 | CCn1nc(C)c(NS(=O)(=O)c2ccc(C)cc2)c1C | inconclusive: 17.8 µM [activator, single point] | 
45 | Cc1ccc(Cl)cc1NC(=O)c1cc2ccccc2cc1O | active: 5.01 µM | 
46 | Oc1c(C(c2cccs2)N2CCN(c3ccccc3)CC2)sc2ncnn12 (stereo not given) | inconclusive: 0.112 µM [inhibitor, single point] | 
47 | COc1ccc(CCN2CN(S(=O)(=O)c3ccccc3)c3nc4ccccc4nc32)cc1OC | inactive | 
48 | COC(=O)c1cccc(NC(=O)CN2CCN(Cc3ccccc3)CC2)c1 | inconclusive: 0.0891 µM [inhibitor, partial curve, poor fit] | 

Row | Compound | Potency | activity change, negative = inhibition
49 | COc1ccc(N2C(=O)C(Cl)=C(Nc3ccccc3O)C2=O)cc1 | inconclusive: 0.355 µM [activator, full curve, poor fit] | 
50 | S=C(NCc1ccco1)N1CCN(c2ccc(Cl)cc2)CC1 | inconclusive: 20 µM [activator, single point] | 
51 | CCCCn1c(/N=C/c2ccc(N(C)C)cc2)nc2ccccc21 | inconclusive: 5.62 µM [inhibitor, single point] | 
52 | O=C(NCc1ccccc1)OCCN1CCN(Cc2ccccc2)CCC1=O | inconclusive: 20 µM [activator, single point] | 
53 | O=[N+]([O-])c1ccc(O)c(/C=N/n2cnc3ccccc32)c1 | inconclusive: 15.8 µM [inhibitor, single point] | 
54 | COc1cccc(NC(=O)NCc2c(-c3ccccc3)noc2C)c1 | inactive | 
55 | Cc1ccc2sc(NNC(=O)c3cc(-c4cccs4)nc4ccccc34)nc2c1C | active: 4.47 µM | 
56 | O=C(C1CCCO1)N1CCN(c2c3c(nc4cc(-c5ccc(F)cc5)nn24)CCC3)CC1 (stereo not given) | inactive | 
57 | COc1ccc(-n2cc(CNCC3CC(=O)N(C4CC4)C3)c(-c3ccccc3Cl)n2)cc1 (stereo not given) | inconclusive: 14.1 µM [inhibitor, single point] | 
58 | O=C(NCc1ccco1)C1CCN(C(=O)c2cc3sccc3n2Cc2ccc(Cl)cc2)CC1 | inconclusive: 25.1 µM [inhibitor, single point] | 
59 | NNC(=O)c1ccc(OCC2CC(c3ccc(Cl)cc3)=NO2)cc1 (stereo not given) | inconclusive: 8.91 µM [inhibitor, partial curve] | 
60 | CCc1cccc(OCCn2nc(C(=O)O)c3ccccc3c2=O)c1 | inactive | 
61 | COc1cccc(-c2nccc(NCc3cccc(C)c3)n2)c1 | inactive | 
62 | Cc1ccc(OCc2nc3c4c(ncn3n2)-c2ccccc2CC42CCCC2)cc1 | inactive | 
63 | O=C(O)c1ccccc1Sc1c([N+](=O)[O-])cc(C(F)(F)F)cc1[N+](=O)[O-] | inconclusive: 35.5 µM [inhibitor, single point] | 
64 | Cc1cccc(NCc2nc3ccccc3n2C)c1 | inactive | 
65 | CC(C)=CCC/C(C)=C/CO/N=C1/C[C@@H](O)[C@@H](O)[C@@H]2[C@@H]3C(=O)N(C(C)(C)C)C(=O)[C@H]3CC[C@@H]12 |  | inactive: 0.635% [at 10 µM]
66 | COc1ccc(C)cc1NC(=O)c1ccc(CN2CCN(c3ccccc3)CC2)cc1 | inactive | 
67 | CN(C)CCNC(=O)/C=C/c1cn(-c2ccccc2)nc1-c1cc2ccccc2oc1=O | inconclusive: 22.4 µM [inhibitor, single point] | 
68 | O=C(Nc1cccc(-c2nc3cc(Cl)ccc3o2)c1)C1CCCO1 (stereo not given) | inconclusive: 1 µM [activator, full curve] | 
69 | CCc1nnc(NS(=O)(=O)c2ccc(N=Cc3c(C)[nH]n(-c4ccc(Cl)cc4)c3=O)cc2)s1 | inconclusive: 11.2 µM [activator, single point] | 
70 | Cc1nc(NC2CCCCC2)c2nc(-c3ccccc3)n(CCN3CCCC3)c2n1 | inconclusive: 12.6 µM [inhibitor, single point] | 

In the list so far, these contain a tert-butyl group:
Row | Compound | Potency | activity change, negative = inhibition
8 | CC(C)(C)OC(=O)N1CCOCCOCCN(C(=O)OC(C)(C)C)CCOCCOCC1 | inconclusive: 0.316 µM [activator, partial curve] | 
14 | CC(C)(C)c1ccc(S(=O)(=O)N2CCC(c3nc4ccc(Cl)cc4[nH]3)CC2)cc1 | inconclusive: 31.6 µM [activator, single point] | 
65 | CC(C)=CCC/C(C)=C/CO/N=C1/C[C@@H](O)[C@@H](O)[C@@H]2[C@@H]3C(=O)N(C(C)(C)C)C(=O)[C@H]3CC[C@@H]12 |  | inactive: 0.635% [at 10 µM]
